Test results reported in article PMC7819943, “Rice protein-binding microarrays: a tool to detect cis-acting elements near promoter regions in rice”.
This is one part of the list.

Sequences of proteins named here, by UniProt entry; tags and fusion partners are left off.
UniProt Q0JBA9, entry or part of it: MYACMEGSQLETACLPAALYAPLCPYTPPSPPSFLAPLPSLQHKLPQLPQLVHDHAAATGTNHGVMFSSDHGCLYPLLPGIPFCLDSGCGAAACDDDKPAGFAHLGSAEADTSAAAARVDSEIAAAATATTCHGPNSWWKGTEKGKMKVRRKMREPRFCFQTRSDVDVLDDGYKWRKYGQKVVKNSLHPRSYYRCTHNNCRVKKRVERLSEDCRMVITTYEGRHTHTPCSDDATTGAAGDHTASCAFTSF

Molecular target: OsWRKY34 (Oryza sativa, UniProt Q0JBA9 1-250)
Experiment: protein-binding microarray (RPBM); PBS, 2% BSA, 51.3 ng/ul salmon testes DNA, 50 uM zinc acetate, 200 nM TF, 25 C, 1 h; high values mean tight binding
Details: protein: recombinant; tags: N-terminal polyhistidine and DsRed monomer fusion (pET32a); label: CyDye5-dUTP incorporated in the synthesized complementary strand; 3' TTTTT single-stranded linker to array surface; dsDNA, one strand shown
Procedure, shortened: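 An Axon 4000B scanner gave the binding signal as per-feature fluorescence intensity in arbitrary units. This followed washing of a custom Agilent array that had been incubated for 1 h at 25 °C with 200 nM protein in PBS, 2% BSA, salmon testes DNA and 50 µM zinc acetate. The proteins were transcription factors fused at the N-terminus to polyhistidine and DsRed, expressed in E. coli BL21-CodonPlus and purified on Ni–NTA.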

Point of comparison: “GGCCATCCGGTTGGAAAGGTTATTGGGGTAGTATCTTTTTCGGAGTCACCTAGTGCAG”, binding signal 12600 fluorescence intensity (a.u.). Against it:
- CCTGTGCGTGGTCGGGTTAATTTGTCAGTCTGTCACTTACCGGAGTCACCTAGTGCAG — lower, 10200 fluorescence intensity (a.u.)
- TTTAGCCTATTTGGTCTTCATCTGCAAGTCTTATGTTCTGCGGAGTCACCTAGTGCAG — lower, 9850 fluorescence intensity (a.u.)
- CGGATTCGGTCATATTTTTTCGCAAACCGCCACTACCCCACGGAGTCACCTAGTGCAG — lower, 11200 fluorescence intensity (a.u.)
- GAGAAACACTCACACACCAGCACACGGCGACCTCATCGGCCGGAGTCACCTAGTGCAG — lower, 8930 fluorescence intensity (a.u.)
- ACTGCTTGCCGCCTCCATCGCCCATTGTTCCCGCCGCCGCCGGAGTCACCTAGTGCAG — lower, 8090 fluorescence intensity (a.u.)
- TTTCCGTGTGTGTGATGAGATTTTTTTTCCTTATCTGCTTCGGAGTCACCTAGTGCAG — lower, 9600 fluorescence intensity (a.u.)
- CCCATCGCCCCACACATCTCCCACCAAACCACCCACCCCACGGAGTCACCTAGTGCAG — lower, 9190 fluorescence intensity (a.u.)
- ATTGTTTTTTGCGCAAGCTGCTTCCTCCTTTGAGGAAACCCGGAGTCACCTAGTGCAG — lower, 8690 fluorescence intensity (a.u.)
- CCCGTTTCTCCCTCGCGCCGCCTCGCCGCGGCCGAAATCTCGGAGTCACCTAGTGCAG — lower, 10700 fluorescence intensity (a.u.)
- ATTCTTGCGGTGGTTCACAGTTGCATCAGGTTTTTAATTGCGGAGTCACCTAGTGCAG — lower, 8480 fluorescence intensity (a.u.)
- TGTGCAGTGACAAGAAATTTCCTTGCGTCTCTTTGTTTCACGGAGTCACCTAGTGCAG — lower, 9060 fluorescence intensity (a.u.)
- ACCGCTTGTGTATTCTGTCATTCTGAATAACATTGTAATACGGAGTCACCTAGTGCAG — lower, 8320 fluorescence intensity (a.u.)
- ACCGTTGATTTTTTTAAACATGTTTGACCGTTCGTCTTATCGGAGTCACCTAGTGCAG — higher, 17100 fluorescence intensity (a.u.)
- ACAATCCTCATATGTCTATTTTACCACACTCAACCTTTACCGGAGTCACCTAGTGCAG — lower, 10000 fluorescence intensity (a.u.)
- CTCTGTATGTCGGTATTTTATTTCTAAGTATTCAATTGTTCGGAGTCACCTAGTGCAG — lower, 11100 fluorescence intensity (a.u.)
- CCTACGCGAGCGCGGGCGGGTGGGTTTGTGGGTTATGTTTCGGAGTCACCTAGTGCAG — higher, 12800 fluorescence intensity (a.u.)
- CGGGTTGGGGAAAAAGCGAGCTGCCGCTTCTGGGTTTTGACGGAGTCACCTAGTGCAG — lower, 10600 fluorescence intensity (a.u.)
- CCCTCGTCTCCCGCGCCTGCCACGCCGCCGAGTCGCGCCACGGAGTCACCTAGTGCAG — lower, 8660 fluorescence intensity (a.u.)
- CGCCTCACTCCGCCTCATCACCCGAGGCGCCCCAATCTCCCGGAGTCACCTAGTGCAG — lower, 8220 fluorescence intensity (a.u.)
- GCGCGAGCCATTATCTTACGTCACGGCCCAAACGCCGAGGCGGAGTCACCTAGTGCAG — lower, 8950 fluorescence intensity (a.u.)
- GCATATCAACGTTAATTACTGCCGATTTGACTGTTGATTACGGAGTCACCTAGTGCAG — lower, 9470 fluorescence intensity (a.u.)
- ACTCTATACTTACTTCTAATATTCCTTATTTTTAATTCCACGGAGTCACCTAGTGCAG — lower, 9050 fluorescence intensity (a.u.)
- CTCGTCCTTGTTCGTCATCGCGCTCGCTCGATTTCTCCTCCGGAGTCACCTAGTGCAG — lower, 8560 fluorescence intensity (a.u.)
- ACATACTAGTGCAGAAAACTTTTGCAAATACTCTATTTTTCGGAGTCACCTAGTGCAG — lower, 8760 fluorescence intensity (a.u.)
- ACTTGTTGATTTATATACCCTTGCTGTCTATGTGAATTTCCGGAGTCACCTAGTGCAG — lower, 10600 fluorescence intensity (a.u.)
- CGTCAAGTTGTTGGTAGCATCGTTGTTCGTCGTCCCGTCCCGGAGTCACCTAGTGCAG — lower, 8600 fluorescence intensity (a.u.)
- CCTTATCTCGTTAGTGCCATCCTCTCATCGCCGCGGTTTCCGGAGTCACCTAGTGCAG — lower, 10100 fluorescence intensity (a.u.)
- ACCCTAGCACACAGCTCCTGTTGTTTCACGTCCCACTCGTCGGAGTCACCTAGTGCAG — lower, 10600 fluorescence intensity (a.u.)
- GTGAGAAAAAGTCAACGGTGTCATCTATTAAAAAATGGAGCGGAGTCACCTAGTGCAG — higher, 13800 fluorescence intensity (a.u.)
- ACATTCTATATCCTTTGTCTCAAAACAGGCTAGTATTTCACGGAGTCACCTAGTGCAG — lower, 11200 fluorescence intensity (a.u.)
- AAATTTTTTTTTTACCTATACATATCACATATATATCACACGGAGTCACCTAGTGCAG — lower, 8280 fluorescence intensity (a.u.)
- CTGCCACACCCACCCACCCGAGACGGACACCGCCGCGAACCGGAGTCACCTAGTGCAG — lower, 9810 fluorescence intensity (a.u.)
- CACACTAAGTCAGCTGTCATGTTGGATAAACCCGAAGTTACGGAGTCACCTAGTGCAG — lower, 8920 fluorescence intensity (a.u.)
- GCTGACCTACACGTTGCTCCTTCTCATGCTCCTTCTATTTCGGAGTCACCTAGTGCAG — lower, 11800 fluorescence intensity (a.u.)
- CTCCGATCCGAGCTCCAGATCTGCGGCGCCGGCGACCAACCGGAGTCACCTAGTGCAG — lower, 8990 fluorescence intensity (a.u.)
- AGCCGTATCCACCCAGTTGTACATGTGTCCTAGTTGAGAGCGGAGTCACCTAGTGCAG — lower, 11400 fluorescence intensity (a.u.)
- TTGAGTTGACGCGAATTGACCCTCATGACCTACCGCCATCCGGAGTCACCTAGTGCAG — lower, 8270 fluorescence intensity (a.u.)
- GTGTTTTCTCGATATCGATATTTTGAGTCTGTTTGACACACGGAGTCACCTAGTGCAG — lower, 8760 fluorescence intensity (a.u.)
- CTGTGTCTGTCTCACCTTTGTGTTCAACTATCAGCCCGGACGGAGTCACCTAGTGCAG — lower, 8780 fluorescence intensity (a.u.)
- TTTGCTTTTAGCTACGTCTTTGTTTGTTTCTAGCTACGGACGGAGTCACCTAGTGCAG — lower, 11200 fluorescence intensity (a.u.)
- AGCATGATACCCATAAGTATTTCTAGTAAAACCAATTCATCGGAGTCACCTAGTGCAG — lower, 8860 fluorescence intensity (a.u.)
- TCCGCCTCGGCCACGCCCAGACACGACCAACCCTGCATCCCGGAGTCACCTAGTGCAG — lower, 8680 fluorescence intensity (a.u.)
- TCCATCTCTCTCGCTCTCTCGCTTGCTCGCCCCGCCGATTCGGAGTCACCTAGTGCAG — lower, 11500 fluorescence intensity (a.u.)
- GGGGTATAATTTGTGTCTTAGCTGATAGAATGTGCAGTTGCGGAGTCACCTAGTGCAG — lower, 9980 fluorescence intensity (a.u.)
- CCCATCTGGCGAGCAGAGCAGGGGAGGGGAAGGGATCTTGCGGAGTCACCTAGTGCAG — lower, 9910 fluorescence intensity (a.u.)
- TCAACCTCTCCCAGACGCGTCGCCCATCTCCACTTCACACCGGAGTCACCTAGTGCAG — lower, 8710 fluorescence intensity (a.u.)
- CATATGCTTGTGTTTTTTTTACTGTCAAGTGTCAACGTCTCGGAGTCACCTAGTGCAG — lower, 10300 fluorescence intensity (a.u.)
- GCTGCTACATTGGTGTGTTTGTTGTACTGCTGCTCGACTCCGGAGTCACCTAGTGCAG — lower, 9280 fluorescence intensity (a.u.)
- GAGGGTTCATGGGGAGGGTAAAGGATGTGCCGGTTGGGAACGGAGTCACCTAGTGCAG — lower, 12100 fluorescence intensity (a.u.)
- GCTCGCTACTTGTTGCCCGCCGCTGCTGCTGCCGCCATTGCGGAGTCACCTAGTGCAG — lower, 8670 fluorescence intensity (a.u.)
- TTGTTTCTGTTCATTTTTCTCTATAGTACTTGCTAGGTGACGGAGTCACCTAGTGCAG — lower, 11500 fluorescence intensity (a.u.)
- GGGCTCTATCTAGCTCGGGGCAGGGCGGGGACGACATGGACGGAGTCACCTAGTGCAG — lower, 12500 fluorescence intensity (a.u.)
- CTCGTCATTGTTCCCATGTTTTTCTATTTCATTTCTAATTCGGAGTCACCTAGTGCAG — lower, 9350 fluorescence intensity (a.u.)
